Source: paper PMC8423306, “Coordinated action of multiple transporters in the acquisition of essential cationic amino acids by the intracellular parasite Toxoplasma gondii” (PLoS Pathogens, 2021)

Biological target: T1, TgApiAT6-1 (Toxoplasma gondii, UniProt A0A125YQS6)
T1 sequence (A0A125YQS6 1-566): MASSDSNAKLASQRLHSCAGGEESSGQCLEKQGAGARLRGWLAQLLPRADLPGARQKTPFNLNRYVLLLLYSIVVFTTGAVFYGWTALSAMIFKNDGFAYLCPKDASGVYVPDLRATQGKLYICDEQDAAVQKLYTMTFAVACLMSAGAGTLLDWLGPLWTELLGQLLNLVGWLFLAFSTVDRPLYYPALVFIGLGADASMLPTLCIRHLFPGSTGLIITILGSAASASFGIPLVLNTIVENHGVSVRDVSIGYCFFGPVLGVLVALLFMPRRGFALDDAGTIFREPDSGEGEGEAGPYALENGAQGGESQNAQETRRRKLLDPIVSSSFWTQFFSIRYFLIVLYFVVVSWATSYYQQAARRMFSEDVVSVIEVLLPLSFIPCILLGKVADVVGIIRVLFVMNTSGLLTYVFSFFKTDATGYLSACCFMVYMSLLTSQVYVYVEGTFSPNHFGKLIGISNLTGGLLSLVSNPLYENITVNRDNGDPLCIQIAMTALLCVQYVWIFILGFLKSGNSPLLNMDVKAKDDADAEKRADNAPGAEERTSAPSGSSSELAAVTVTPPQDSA
Parameters: gene ApiAT6-1

Which “trans-stimulation of [14C]Arg efflux and uptake in Xenopus oocytes” value does the source give for `NCCC[C@H](N)C(=O)O` [Or, ornithine] here?
Its value is “observed in the presence of several cationic amino acids (e.g. Arg, His, Orn)”.
